Our source for the binding values is publication PMC11531844.

Amino acid sequences for entries named in this document (tags omitted).
UniProt P12849: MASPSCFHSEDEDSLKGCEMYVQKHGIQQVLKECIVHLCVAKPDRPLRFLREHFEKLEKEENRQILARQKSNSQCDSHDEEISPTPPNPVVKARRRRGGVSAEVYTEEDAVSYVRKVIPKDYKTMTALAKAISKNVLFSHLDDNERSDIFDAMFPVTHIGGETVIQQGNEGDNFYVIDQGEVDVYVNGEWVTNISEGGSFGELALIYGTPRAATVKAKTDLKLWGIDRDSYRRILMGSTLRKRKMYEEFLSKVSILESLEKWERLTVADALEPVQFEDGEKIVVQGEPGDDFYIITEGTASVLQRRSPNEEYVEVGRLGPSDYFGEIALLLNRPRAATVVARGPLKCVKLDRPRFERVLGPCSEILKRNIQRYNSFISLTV
UniProt Q9DBC7: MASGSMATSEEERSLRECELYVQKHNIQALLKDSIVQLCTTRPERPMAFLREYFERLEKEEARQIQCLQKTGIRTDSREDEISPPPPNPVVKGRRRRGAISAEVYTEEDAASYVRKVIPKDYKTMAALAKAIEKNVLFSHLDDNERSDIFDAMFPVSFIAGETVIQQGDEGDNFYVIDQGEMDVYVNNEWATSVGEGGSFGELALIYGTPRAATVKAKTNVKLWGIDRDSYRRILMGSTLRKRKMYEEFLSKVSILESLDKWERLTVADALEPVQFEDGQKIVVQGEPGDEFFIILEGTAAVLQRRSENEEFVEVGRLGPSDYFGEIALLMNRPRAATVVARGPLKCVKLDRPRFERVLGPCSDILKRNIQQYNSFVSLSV

Experiment [1] addresses PKA regulatory subunit RIβ, endogenous, wild-type mouse brain (mouse (endogenous in brain tissue)) (UniProt P12849). Description: non-reducing SDS-PAGE with immunoblot; soluble fractions of brain lysates from young (3-4 months) and old (16-20 months) WT or L50R heterozygous mice, non-reduced gel, blot with RIβ-specific or RIα-specific antibody. On the technique in general: Immunoblotting shows a protein as a band on a membrane.

In experiment [2] the target is PKA regulatory subunit RIα, endogenous, mouse brain (mouse (endogenous in brain tissue)) (UniProt Q9DBC7). The description is as above.

Results are given in words; binding and its absence hold for the method and conditions named. Some results given as binding are weak or reduced against the parent protein; the word gives no strength.

“PKA regulatory subunit RIβ, endogenous, wild-type mouse brain (from UniProt P12849 1-381)”: the binding entry in experiment [1] was “binds”.

With “PKA regulatory subunit RIα, endogenous, mouse brain (from UniProt Q9DBC7 1-381)”, in experiment [2], the binding result was “binds”.
